Measurements from patent US6716596B2, “Agents for replacement of NAD+/NADH system in enzymatic reactions” (The Regents of the University of California, priority 2001, dated 2004).
Where a name gives a salt, the structure may show the parent alone.

Assay: regioselective reduction of biomimics with catalyst precursor (2) and sodium formate, followed by 1H NMR
Details: (2) as catalyst precursor, sodium formate as hydride source
Method: The relative rates, seen tabulated in FIG. 1C, were determined by observing disappearance of the pyridinium signals versus an internal standard, [(CH3)4N]OTf (tetramethylammonium triflate), during the first 2 hours, where the relative rate of 1-benzylnicotinamide triflate (1) was set to 1.0. The turnover frequencies were calculated by the formation of mmol of product/mmol of catalyst/hour. The total turnover number in 24 hours was ˜95 for all substrates that gave product. The reactions were conducted in presilylated J. Young NMR tubes and were followed by ^1H NMR.
The electronic effect of differently substituted nicotinamide substrates was determined by their relative rates. The relative rates of these compounds were determined by observing the disappearance of the pyridinium signals compared to interval standard, [(CH3)4N]OTf, during the first 2 hours, where the relative rate of compound (1a) was 1.0.
In a typical reaction, a J. Young NMR tube was charged, biomimic substrates (1a)-(1i) (1.0 mol), 2 (1% mol), and HCO2Na (1.1 mol) used as the hydride source and a Schlenk techniques were conducted to deoxygenate the solid mixture. […]
The given relative rates and turnover frequencies were determined by decreasing integration of the corresponding pyridinium salts measured against an internal standard, (CH3)4N(OTf), during the first 2 h of the reaction. […]

SMILES: NC(=O)c1ccc[n+](Cc2ccccc2)c1 [Compound 1a, 1-Benzylnicotinamide, Triflate Salt]
- regiospecificity of reduction to 1,4-dihydro derivative: exclusively
- regiospecificity of reduction to 1,4-dihydro derivative (listed as 1): almost exclusive 1,4-NADH regiospecificity
